# Results: PubChem BioAssay AID504467 (National Center for Advancing Translational Sciences (NCATS), 2011)
# Screen size: about 330,000 compounds; about 7,700 (2.3%) were called active. The shares of active, inactive and inconclusive entries below differ from those in the screen. The call rests on the fitted dose curve; in most records, active means well fitted inhibition curve with a large enough effect; inconclusive means small, poorly fitted or top-dose-only effect, or effect the other way; inactive means flat fitted curve, though single readings scatter. A potency beside an inconclusive call is a rough fit, not a confirmed value.
# Assay: qHTS screen for small molecules that inhibit ELG1-dependent DNA repair in human embryonic kidney (HEK293T) cells expressing luciferase-tagged ELG1; further: nearly all actives have a fitted effect of over 55% in size
# Settings: HEK293T ELG1-luciferase reporter, luminescence, 16 h, DNA damage induced by 5-fluorouridine; series mostly up to 46.1 µM
# Method in brief: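 Quantitative HTS, concentration-response format. 2,000 cells/well co-treated with 5-fluorouridine and compound, 16 hr in 5% CO2 at 37 °C; ONE-Glo luminescence read after 30 min.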
# Potency means the concentration at half of the fitted maximal effect.
row,Compound,Potency
1,O=C(C[C@H]1C[C@H](C(=O)N2CCOCC2)[C@@]2(CCC3CCCC3)c3[nH]c4cc(-c5ccco5)ccc4c3CCN2C1=O)NCc1ccco1,"inconclusive: 23.1 µM [inhibitor, partial curve, poor fit]"
2,CCCCCc1nnc(NC(=O)c2cccc(S(=O)(=O)N3CCOCC3)c2)s1,inactive
3,Cc1ccc(C)c(NS(=O)(=O)c2ccc(OCC(=O)NCc3ccccn3)cc2)c1,"inconclusive: 20.6 µM [inhibitor, partial curve]"
4,COC(=O)NNC(=O)Cc1cccc2ccccc12,inactive
5,Cc1cccc(N2CCN(C(=O)c3csc4ccccc34)CC2C)c1 (stereo not drawn),"inconclusive: 23.1 µM [inhibitor, single point]"
6,O=C(N/N=C(\c1ccccc1)c1ccccn1)c1ccccc1Cl,"inconclusive: 8.2 µM [activator, single point]"
7,Cc1cccc(C2=NN(c3ccc(Br)cc3)[C@@H](C(=O)N3CCOC3=O)[C@@H]2c2ccc(F)cc2)c1,inactive
8,O=C(NNc1nc(-c2ccccc2)c2cc(Br)ccc2n1)c1ccc(S(=O)(=O)N2CCCCC2)cc1,"inconclusive: 10.3 µM [inhibitor, partial curve, poor fit]"
9,Cc1sc(NC(=O)c2ccc(F)cc2)c(CN2CCCCCC2)c1C,"inconclusive: 14.6 µM [activator, partial curve]"
10,Cc1ccccc1CS(=O)(=O)c1cnc2ccccc2n1,"inconclusive: 16.4 µM [activator, single point]"
11,COCCn1c(SCC(=O)N2CCCc3ccccc32)nc2ccccc2c1=O,"inconclusive: 18.4 µM [inhibitor, partial curve, poor fit]"
12,CCCCn1c(SCC(=O)NC(=O)NCc2ccco2)nc2cc(S(N)(=O)=O)ccc21,"inconclusive: 2.06 µM [inhibitor, partial curve, poor fit]"
13,C=CCn1c(SCC(=O)Nc2cc(C)nn2-c2ccccc2)nnc1C1CCCCC1,"inconclusive: 23.1 µM [inhibitor, single point]"
14,Cc1c(C=O)c2ccccn2c1C(=O)c1ccccc1,"inconclusive: 16.4 µM [inhibitor, single point]"
15,O=C(N/N=C/c1ccc(Br)cc1)c1ccccc1-n1cccc1,inactive
16,COc1ccc(N2CCN(C(c3ccc4ncccc4c3)c3nnnn3C(C)C)CC2)cc1 (stereo not drawn),"inconclusive: 13 µM [inhibitor, partial curve]"
17,O=C(O)c1ccc(OCC(O)Cn2c3ccccc3c3ccccc32)cc1 (stereo not drawn),"inconclusive: 29.1 µM [inhibitor, single point]"
18,Cc1ccccc1OCCn1cc(/C(N)=N/O)c2ccccc21,"inconclusive: 29.1 µM [inhibitor, single point]"
19,CCOc1ccc(-c2n[nH]c(C)c2Oc2ccc(OC)cc2)c(O)c1,inactive
20,COCCSc1nc2c(c(=O)[nH]c(=O)n2C)n1CCCc1ccccc1,"inconclusive: 22.4 µM [inhibitor, single point]"
21,CCOc1ccc(N(CC(=O)NCCOc2ccccc2OC)S(=O)(=O)c2ccccc2)cc1,"inconclusive: 16.4 µM [inhibitor, single point]"
22,Cc1ccc2nc(CSc3nnc(Nc4ccccc4C)s3)cc(=O)n2c1,active: 25.9 µM
23,O=C(CNC(=O)c1ccco1)OCc1c(F)cccc1Cl,inactive

row,Compound,Potency
1,COc1cc(-c2nc3n(n2)C(c2cccc(OC)c2OC)C2=C(CCCC2=O)N3)cc(OC)c1OC (stereo not drawn),"inconclusive: 17.8 µM [inhibitor, single point]"
2,O=C(NCCCNC(=O)c1ccccc1Br)c1ccccc1Br,inactive
3,O=C(OC(C(=O)NC1CCCCC1)c1ccccc1F)c1ccco1 (stereo not drawn),inactive
4,Cc1ccsc1-c1nc(CN(C)C(C2CC2)C2CC2)c(C)o1,"inconclusive: 23.1 µM [inhibitor, single point]"
5,O=C(C1CCN(S(=O)(=O)c2cccc3cccnc23)CC1)N1CC=C(c2ccccc2)CC1,active: 23.1 µM
6,Cc1ccc(NCCC(=O)c2ccc(Cl)cc2)cc1,"inconclusive: 16.4 µM [activator, partial curve, poor fit]"
7,CCCCn1c(SCC(=O)NC(=O)Cc2ccccc2)nc2ccccc2c1=O,inactive
8,NC(=S)NC(=O)/C=C/c1ccccc1,"inconclusive: 20.6 µM [activator, single point]"
9,C/C=C/c1ccc(OCC(=O)OCC(=O)Nc2c(C)nn(-c3ccccc3)c2C)c(OC)c1,inactive
10,O=C(NCC1(c2ccccc2)CCCC1)C(=O)N1CCOCC1,"inconclusive: 0.231 µM [inhibitor, full curve, poor fit]"
11,CC1CCN(c2nc3c(c(=O)[nH]c(=O)n3C)n2CCCc2ccccc2)CC1,"inconclusive: 20.6 µM [inhibitor, single point]"
12,Cc1ccc(Nc2nc(N3CCOCC3)nc(N3CCOCC3)n2)cc1Cl,active: 0.651 µM
13,COc1ccc(-c2csc(Nc3cc(C)ccn3)n2)cc1OC,"inconclusive: 35.5 µM [inhibitor, single point]"
14,C/C(Cn1nnc([N+](=O)[O-])n1)=N\NC(=O)c1ccc(O)cc1,"inconclusive: 7.3 µM [inhibitor, partial curve, poor fit]"
15,O=C(c1ccc2nc(-c3ccco3)c(-c3ccco3)nc2c1)N1CCN(c2ccccc2)CC1,"inconclusive: 29.1 µM [inhibitor, single point]"
16,O=C(Nc1ccccc1C(F)(F)F)c1cc(-c2cccc(O)c2)on1,"inconclusive: 10.3 µM [activator, partial curve]"
17,O=S(=O)(Nc1cccc(-c2ccc3nncn3n2)c1)c1ccccc1F,"inconclusive: 13 µM [activator, single point]"
18,CSc1ccc(/C=C(\NC(=O)c2ccc(C)cc2)C(=O)NN)cc1,active: 18.3 µM
19,CCc1[nH]nc(C(=O)NC2CCCc3c2cnn3-c2cc(C)cc(C)c2)c1C (stereo not drawn),"inconclusive: 16.4 µM [activator, partial curve]"
20,O=C1/C(=C/c2ccccc2Cl)SC(=S)N1CCCC(=O)N(CCO)c1ccccc1,inactive
21,COc1ccc(OC)c2c(C)cc(N3CCCCCC3)nc12,"inconclusive: 32.6 µM [inhibitor, partial curve, poor fit]"
22,CC1CCN(C(=O)c2ccc(CS(=O)(=O)Cc3ccccc3)cc2)CC1,"inconclusive: 25.9 µM [inhibitor, partial curve]"
23,O=C(NCc1ccccc1)C1=C[C@@H](c2csc3ccccc23)C[C@@H](OCc2ccc(CO)cc2)O1,inactive

# In another format: entries from further up
row	Compound	Potency
17	O=C(O)c1ccc(OCC(O)Cn2c3ccccc3c3ccccc32)cc1 (stereo not drawn)	inconclusive: 29.1 µM [inhibitor, single point]
18	Cc1ccccc1OCCn1cc(/C(N)=N/O)c2ccccc21	inconclusive: 29.1 µM [inhibitor, single point]
19	CCOc1ccc(-c2n[nH]c(C)c2Oc2ccc(OC)cc2)c(O)c1	inactive

# Following part

row,Compound,Potency
1,COc1ccc(-c2[nH]ncc2CN2CCC(N3CCSCC3)CC2)cc1F,inactive
2,O=C(c1ccc(-c2ccc([N+](=O)[O-])cc2)o1)N1CCCCCCC1,"inconclusive: 6.31 µM [activator, partial curve]"
3,CNC(=O)c1cc(S(=O)(=O)NCc2ccncc2)ccc1OC,inactive
4,O=C(CCCN1C(=O)/C(=C/c2ccccc2Cl)SC1=S)NNC(=O)c1ccccc1,inactive
5,COc1ccc2[nH]c(=O)c(CN(C(=O)c3cccnc3)c3cc(C)ccc3C)cc2c1,"inconclusive: 29.1 µM [activator, partial curve, poor fit]"
6,O=C(c1nnc(-c2ccccc2)o1)C1CC1,"inconclusive: 23.1 µM [activator, single point]"
7,CN(CC(=O)N1CCN(Cc2ccccc2)CC1)C(=O)Cc1ccc(Cl)c(Cl)c1,"inconclusive: 20.6 µM [inhibitor, single point]"
8,CC1CC(C)CN(CCCNC(=O)CN2C(=O)COc3ccc(S(=O)(=O)N4CCOCC4)cc32)C1 (stereo not drawn),"inconclusive: 18.3 µM [activator, partial curve, poor fit]"
9,COc1cccc(/C=C/C(=O)c2ccc[nH]2)c1,"inconclusive: 2.91 µM [activator, full curve]"
10,C/C(=N\N=C(/N)SC1CC(=O)N(c2ccccc2)C1=O)c1cccs1 (stereo not drawn),inactive
11,COc1ccc(/C=C2/C(=N)N3C(=NC2=O)Sc2cc(S(C)(=O)=O)ccc23)cc1OC,"inconclusive: 20.6 µM [activator, partial curve]"
12,Cc1ccc(S(=O)(=O)N(Cc2ccc(Cl)cc2)c2ccccc2C(=O)NCc2ccco2)cc1,"inconclusive: 18.4 µM [inhibitor, partial curve]"
13,CCc1nnc(SCC(=O)Nc2ccc(NC(C)=O)cc2)n1-n1cccc1,"inconclusive: 25.9 µM [activator, single point]"
14,COc1ccc(OC)c(N=c2oc3cc(O)ccc3cc2C(N)=O)c1,"inconclusive: 29.1 µM [inhibitor, single point]"
15,CC(C)Cc1ccc(C(C)C(=O)Nc2ncccn2)cc1 (stereo not drawn),inactive
16,CN(C)c1ccc(/C=N/NC(=O)c2ccc(CN3CCOCC3)cc2)cc1Br,"inconclusive: 11.6 µM [inhibitor, partial curve]"
17,Cc1ccc(CN(C)C(=O)C2CCC(=O)N(C3CCCCCC3)C2)cc1 (stereo not drawn),inactive
18,COc1ccccc1NCC(=O)N/N=C/C=C/c1ccccc1,inactive
19,CC(=O)NC12CC3CC(C1)CC(C(=O)OCC(=O)c1ccc4c(c1)OCCO4)(C3)C2,"inconclusive: 16.4 µM [activator, partial curve]"
20,COc1ccccc1NS(=O)(=O)c1cccc(C(=O)N2CCN(Cc3ccc4c(c3)OCO4)CC2)c1,inactive
21,CCC(C)NC(=O)c1ccccc1NC(=O)COc1ccc(OC)cc1 (stereo not drawn),"inconclusive: 25.9 µM [inhibitor, single point]"
22,CCCCNC(=O)/C=C1\Sc2ccccc2NC1=O,"inconclusive: 16.4 µM [activator, single point]"
